PubChem BioAssay AID1259308 | NCATS, 2017
Aim: 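Candidate targets for better recombinant protein yield in mammalian cells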 (primary screen). Cells: human HEK293 embryonic kidney cells stably expressing firefly luciferase (HEK-CMV-Luc2-Hygro). Reagents: single siRNA against human genes, 0.8 pmol siRNA per well. Time to read-out: 72 h. Measured: 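Luciferase light (ONE-Glo) measured on one replicate plate set and viability (CellTiter-Glo) on the other, scaled to a negative control siRNA, with robust z-scores and luciferase per cell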. Reading the numbers: total luciferase, z-score and total luciferase, % of control: higher = more reporter protein produced; luciferase per cell, z-score: higher = more reporter output per viable cell. Active means: 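Active when the median/MAD z-score for overall luciferase is greater than 3; a gene was taken forward for validation with new siRNAs if at least two of its three siRNAs passed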. Meaning of the calls: active = raised luciferase; inactive = no rise.
Shown is an unselected part of about 59,000 deposited reagents. Of all reagents, about 1,510 (2.6%) are marked active. 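Calls use total luciferase alone and ignore viability, so some active siRNAs may act by altering cell number.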 The numbers tell different reagents against one gene apart. Further read-outs or replicates are left out here.

Gene,reagent no.,"total luciferase, z-score","total luciferase, % of control","luciferase per cell, z-score",Call
SMLR1,1,-1.24,57.1,-0.854,inactive
SMLR1,2,0.616,94.1,1.2,inactive
SMLR1,3,0.417,90.2,0.553,inactive
TGFB1I1,1,0.954,101,0.618,inactive
TGFB1I1,2,0.674,95.3,0.0217,inactive
TGFB1I1,3,0.55,92.8,0.149,inactive
DDX3X,1,-0.0407,81.1,-0.147,inactive
DDX3X,2,0.438,90.6,0.0509,inactive
DDX3X,3,1.93,120,1.09,inactive
CRYGB,1,0.58,93.4,0.662,inactive
CRYGB,2,-1.2,58,-0.77,inactive
CRYGB,3,0.639,94.6,0.529,inactive
CDC25A,1,0.401,89.9,0.219,inactive
CDC25A,2,-0.252,76.9,-0.158,inactive
CDC25A,3,1.22,106,2.31,inactive
ZCRB1,1,1.71,116,1.32,inactive
ZCRB1,2,-0.986,62.3,-0.951,inactive
ZCRB1,3,0.742,96.6,0.764,inactive
C2orf72,1,1.27,107,1.22,inactive
C2orf72,2,-0.744,67.1,-0.334,inactive
C2orf72,3,0.117,84.2,-0.306,inactive
KIT,1,0.294,87.7,1.46,inactive
KIT,2,-1.32,55.7,-1.47,inactive
KIT,3,-1.08,60.4,-0.287,inactive
CTDSPL,1,0.3,87.8,1,inactive
CTDSPL,2,-0.796,66.1,-0.974,inactive
CTDSPL,3,-0.215,77.6,-0.78,inactive
DKK4,1,-0.308,75.8,-0.451,inactive
DKK4,2,-0.261,76.7,0.0854,inactive
DKK4,3,-0.873,64.5,-0.465,inactive
UROC1,1,0.72,96.2,-0.148,inactive
UROC1,2,0.667,95.1,0.329,inactive
UROC1,3,0.767,97.1,-0.259,inactive
FAM180A,1,-1.42,53.7,-0.00639,inactive
FAM180A,2,-0.131,79.3,-0.0865,inactive
FAM180A,3,1.76,117,1.75,inactive
NBPF1,1,0.382,89.5,0.855,inactive
NBPF1,2,0.273,87.3,-0.701,inactive
NBPF1,3,-0.43,73.3,0.329,inactive
PAX9,1,-0.345,75,-0.735,inactive
PAX9,2,-1.25,57,-0.976,inactive
PAX9,3,2.56,133,1.49,inactive
BTBD19,1,-1.76,46.8,-1,inactive
BTBD19,2,-1.73,47.4,-1.5,inactive
BTBD19,3,-1.04,61.2,-1.26,inactive
NEUROD1,1,-0.51,71.7,-0.36,inactive
NEUROD1,2,0.425,90.3,0.134,inactive
NEUROD1,3,0.47,91.2,0.348,inactive
SPOUT1,1,0.00112,81.9,0.291,inactive
SPOUT1,2,-2.11,40,-2.81,inactive
SPOUT1,3,-0.144,79,-0.259,inactive
RALYL,1,2.48,131,1.34,inactive
RALYL,2,1.77,117,1.46,inactive
RALYL,3,-0.00525,81.8,-0.808,inactive
GK5,1,-0.625,69.5,-0.545,inactive
GK5,2,0.346,88.8,0.267,inactive
GK5,3,-0.0623,80.6,0.148,inactive
